Results as given in article PMC7299723.
Read-outs that look alike come from different tables or passages of the source. Results are given in words; binding and its absence hold for the method and conditions named. In cells and extracts the contact can be indirect. Here binding means that the protein was enriched with, or labelled near, the bait; the list need not be complete.

By UniProt entry, the sequences of proteins in these tests, tags left out.
UniProt P63018: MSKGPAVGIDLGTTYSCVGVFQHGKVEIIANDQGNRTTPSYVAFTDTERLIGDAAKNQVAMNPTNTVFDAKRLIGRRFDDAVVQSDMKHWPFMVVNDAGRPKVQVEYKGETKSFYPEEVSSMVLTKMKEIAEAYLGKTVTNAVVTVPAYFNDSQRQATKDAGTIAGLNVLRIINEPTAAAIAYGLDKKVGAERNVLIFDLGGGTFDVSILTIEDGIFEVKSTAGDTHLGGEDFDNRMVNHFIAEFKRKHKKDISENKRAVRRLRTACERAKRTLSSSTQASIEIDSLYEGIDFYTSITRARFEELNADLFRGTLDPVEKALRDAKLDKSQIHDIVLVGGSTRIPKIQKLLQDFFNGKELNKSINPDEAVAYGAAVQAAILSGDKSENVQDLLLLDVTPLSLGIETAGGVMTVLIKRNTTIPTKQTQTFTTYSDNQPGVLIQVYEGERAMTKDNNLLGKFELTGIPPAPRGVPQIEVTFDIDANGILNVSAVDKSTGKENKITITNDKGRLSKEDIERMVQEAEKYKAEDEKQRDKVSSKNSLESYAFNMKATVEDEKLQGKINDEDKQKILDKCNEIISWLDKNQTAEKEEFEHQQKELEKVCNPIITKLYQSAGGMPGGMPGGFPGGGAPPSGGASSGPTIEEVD

T1: Zinc‐α2‐glycoprotein (rat (endogenous in primary cortical neurons)) (UniProt Q63678)
T1 sequence: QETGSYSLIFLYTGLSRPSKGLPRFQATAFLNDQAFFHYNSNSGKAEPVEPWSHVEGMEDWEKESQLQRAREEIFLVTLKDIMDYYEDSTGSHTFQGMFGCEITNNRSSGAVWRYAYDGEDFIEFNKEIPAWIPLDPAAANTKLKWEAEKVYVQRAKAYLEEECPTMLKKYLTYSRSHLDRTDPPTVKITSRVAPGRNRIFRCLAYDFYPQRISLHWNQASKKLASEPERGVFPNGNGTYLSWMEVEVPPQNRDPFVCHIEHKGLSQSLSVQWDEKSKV

B1: four β‐subunits of long‐chain L‐3‐hydroxyacyl‐CoA dehydrogenase (enzyme, UniProt Q60587 35-475)
chain: SAPAVQTKSKKTLAKPNLKNIVVVEGVRIPFLLSGTSYKDLMPHDLARAALSGLLYRTNIPKDVVDYIIFGTVIQEVKTSNVAREAALGAGFSDKTPAHTVTMACISSNQAMTTAVGLIASGQCDVVVAGGVELMSDVPIRHSRNMRKMMLDLNKAKTLAQRLSLLTKFRLNFLSPELPAVAEFSTNETMGHSADRLAAAFAVSRMEQDKYALRSHSLAKKAQDEGHLSDIVPFKVPGKDTVSKDNGIRPSSLEQMAKLKPAFIKPYGTVTAANSSFLTDGASAMLIMSEDRALAMGYKPKAYLRDFIYVSQDPKDQLLLGPTYATPKVLEKAGLTMNDIDAFEFHEAFSGQILANFKAMDSDWFAQNYMGRKTKVGAPPLEKFNIWGGSLSLGHPFGATGCRLVMAAANRLRKDGGQYALVAACAAGGQGHAMIVEAYPK

Columns and labels:
[1] = biological target: T1, Zinc‐α2‐glycoprotein (rat (endogenous in primary cortical neurons)); test: affinity purification with mass spectrometry; immunoprecipitation with anti-ZAG antibody (mouse IgG as control) from extracts of cultured rat cortical neurons, Protein A/G agarose, SDS-PAGE, in-gel digestion, TripleTOF 5600; 3 independent experiments
[2] = biological target: T1, Zinc‐α2‐glycoprotein (rat (endogenous in primary cortical neurons)); test: as above; remark: listed apart in the source

Row | Molecule | binding [1] | binding [2]
1 | heat shock cognate protein 70 (from UniProt P63018 1-646) | binds | 
2 | B1 |  | binds
